Results taken from patent publication US20230159620A1, “COMPOSITIONS AND METHODS OF TREATMENT FOR VASCULAR DISEASES AND THROMBOSIS” (Washington University, priority 2021, published 2023).
These are yes or no findings as the source states them, for the method shown. Binding seen in cells or lysates may run through a third protein. Some results given as binding are weak or reduced against the parent protein; the word gives no strength. For part of these data: Sequences can lack the tags named with a protein.

The chains behind the UniProt entries cited, without tags or fusion partners. Residues count along the entry.
UniProt P11276, residues 33-2477: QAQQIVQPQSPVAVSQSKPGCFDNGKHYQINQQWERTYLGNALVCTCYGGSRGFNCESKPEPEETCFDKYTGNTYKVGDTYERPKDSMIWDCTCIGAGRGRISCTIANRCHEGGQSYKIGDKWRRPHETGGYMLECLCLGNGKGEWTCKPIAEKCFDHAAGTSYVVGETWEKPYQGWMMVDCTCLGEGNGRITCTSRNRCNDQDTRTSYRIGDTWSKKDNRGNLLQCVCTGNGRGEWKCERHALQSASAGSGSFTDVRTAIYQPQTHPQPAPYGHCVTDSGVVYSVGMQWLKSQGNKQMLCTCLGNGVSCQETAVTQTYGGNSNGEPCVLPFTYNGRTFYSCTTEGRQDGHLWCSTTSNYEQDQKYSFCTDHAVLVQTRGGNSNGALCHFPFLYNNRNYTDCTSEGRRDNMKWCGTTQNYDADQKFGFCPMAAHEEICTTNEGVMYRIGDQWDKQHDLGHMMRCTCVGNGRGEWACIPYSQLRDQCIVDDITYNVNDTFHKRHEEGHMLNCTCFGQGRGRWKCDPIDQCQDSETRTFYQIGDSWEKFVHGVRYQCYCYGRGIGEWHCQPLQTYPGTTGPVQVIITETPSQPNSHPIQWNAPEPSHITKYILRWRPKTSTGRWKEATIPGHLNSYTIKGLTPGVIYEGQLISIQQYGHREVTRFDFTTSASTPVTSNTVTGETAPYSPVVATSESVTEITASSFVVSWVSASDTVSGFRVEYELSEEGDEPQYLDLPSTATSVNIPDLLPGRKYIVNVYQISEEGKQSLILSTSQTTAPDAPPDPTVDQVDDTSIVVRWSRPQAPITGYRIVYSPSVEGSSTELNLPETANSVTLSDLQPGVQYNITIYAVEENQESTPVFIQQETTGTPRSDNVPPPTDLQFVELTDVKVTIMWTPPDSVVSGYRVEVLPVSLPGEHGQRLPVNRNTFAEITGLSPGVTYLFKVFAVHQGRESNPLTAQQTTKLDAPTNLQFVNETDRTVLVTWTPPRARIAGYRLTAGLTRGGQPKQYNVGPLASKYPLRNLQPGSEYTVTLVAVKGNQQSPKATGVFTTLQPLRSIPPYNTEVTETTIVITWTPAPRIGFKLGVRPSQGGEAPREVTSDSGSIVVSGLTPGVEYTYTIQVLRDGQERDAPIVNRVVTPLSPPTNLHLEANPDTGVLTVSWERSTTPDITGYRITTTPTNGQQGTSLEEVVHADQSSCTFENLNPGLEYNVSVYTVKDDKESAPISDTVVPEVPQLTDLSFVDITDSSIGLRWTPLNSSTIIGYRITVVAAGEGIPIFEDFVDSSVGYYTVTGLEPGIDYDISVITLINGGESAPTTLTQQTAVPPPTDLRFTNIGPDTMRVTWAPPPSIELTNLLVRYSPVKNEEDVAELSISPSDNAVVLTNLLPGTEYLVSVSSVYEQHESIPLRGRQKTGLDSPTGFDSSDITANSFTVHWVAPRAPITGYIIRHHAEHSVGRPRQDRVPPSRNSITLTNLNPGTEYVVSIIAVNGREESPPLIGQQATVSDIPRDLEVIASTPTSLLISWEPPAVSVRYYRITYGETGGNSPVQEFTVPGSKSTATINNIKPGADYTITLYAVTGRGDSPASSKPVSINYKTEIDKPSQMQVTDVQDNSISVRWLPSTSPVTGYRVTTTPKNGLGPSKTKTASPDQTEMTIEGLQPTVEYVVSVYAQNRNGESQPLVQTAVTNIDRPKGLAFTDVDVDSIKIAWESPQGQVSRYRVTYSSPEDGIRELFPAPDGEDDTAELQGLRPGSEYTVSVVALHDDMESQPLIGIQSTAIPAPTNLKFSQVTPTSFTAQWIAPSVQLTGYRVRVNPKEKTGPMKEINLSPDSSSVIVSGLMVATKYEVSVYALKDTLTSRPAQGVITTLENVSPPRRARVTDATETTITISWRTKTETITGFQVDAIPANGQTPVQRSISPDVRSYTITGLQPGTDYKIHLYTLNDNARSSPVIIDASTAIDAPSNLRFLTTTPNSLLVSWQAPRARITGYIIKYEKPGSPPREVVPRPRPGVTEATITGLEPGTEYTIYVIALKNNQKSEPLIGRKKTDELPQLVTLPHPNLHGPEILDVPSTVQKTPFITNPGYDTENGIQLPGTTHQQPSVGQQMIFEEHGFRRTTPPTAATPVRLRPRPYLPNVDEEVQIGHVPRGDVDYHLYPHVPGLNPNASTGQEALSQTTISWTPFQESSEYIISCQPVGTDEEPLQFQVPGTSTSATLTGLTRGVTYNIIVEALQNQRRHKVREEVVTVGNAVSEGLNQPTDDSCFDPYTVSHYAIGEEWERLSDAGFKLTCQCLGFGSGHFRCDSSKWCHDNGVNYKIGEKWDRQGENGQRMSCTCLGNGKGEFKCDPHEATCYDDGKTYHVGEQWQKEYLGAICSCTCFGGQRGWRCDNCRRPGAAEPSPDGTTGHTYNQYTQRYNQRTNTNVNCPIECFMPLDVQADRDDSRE
UniProt A2AVA0, residues 18-3567: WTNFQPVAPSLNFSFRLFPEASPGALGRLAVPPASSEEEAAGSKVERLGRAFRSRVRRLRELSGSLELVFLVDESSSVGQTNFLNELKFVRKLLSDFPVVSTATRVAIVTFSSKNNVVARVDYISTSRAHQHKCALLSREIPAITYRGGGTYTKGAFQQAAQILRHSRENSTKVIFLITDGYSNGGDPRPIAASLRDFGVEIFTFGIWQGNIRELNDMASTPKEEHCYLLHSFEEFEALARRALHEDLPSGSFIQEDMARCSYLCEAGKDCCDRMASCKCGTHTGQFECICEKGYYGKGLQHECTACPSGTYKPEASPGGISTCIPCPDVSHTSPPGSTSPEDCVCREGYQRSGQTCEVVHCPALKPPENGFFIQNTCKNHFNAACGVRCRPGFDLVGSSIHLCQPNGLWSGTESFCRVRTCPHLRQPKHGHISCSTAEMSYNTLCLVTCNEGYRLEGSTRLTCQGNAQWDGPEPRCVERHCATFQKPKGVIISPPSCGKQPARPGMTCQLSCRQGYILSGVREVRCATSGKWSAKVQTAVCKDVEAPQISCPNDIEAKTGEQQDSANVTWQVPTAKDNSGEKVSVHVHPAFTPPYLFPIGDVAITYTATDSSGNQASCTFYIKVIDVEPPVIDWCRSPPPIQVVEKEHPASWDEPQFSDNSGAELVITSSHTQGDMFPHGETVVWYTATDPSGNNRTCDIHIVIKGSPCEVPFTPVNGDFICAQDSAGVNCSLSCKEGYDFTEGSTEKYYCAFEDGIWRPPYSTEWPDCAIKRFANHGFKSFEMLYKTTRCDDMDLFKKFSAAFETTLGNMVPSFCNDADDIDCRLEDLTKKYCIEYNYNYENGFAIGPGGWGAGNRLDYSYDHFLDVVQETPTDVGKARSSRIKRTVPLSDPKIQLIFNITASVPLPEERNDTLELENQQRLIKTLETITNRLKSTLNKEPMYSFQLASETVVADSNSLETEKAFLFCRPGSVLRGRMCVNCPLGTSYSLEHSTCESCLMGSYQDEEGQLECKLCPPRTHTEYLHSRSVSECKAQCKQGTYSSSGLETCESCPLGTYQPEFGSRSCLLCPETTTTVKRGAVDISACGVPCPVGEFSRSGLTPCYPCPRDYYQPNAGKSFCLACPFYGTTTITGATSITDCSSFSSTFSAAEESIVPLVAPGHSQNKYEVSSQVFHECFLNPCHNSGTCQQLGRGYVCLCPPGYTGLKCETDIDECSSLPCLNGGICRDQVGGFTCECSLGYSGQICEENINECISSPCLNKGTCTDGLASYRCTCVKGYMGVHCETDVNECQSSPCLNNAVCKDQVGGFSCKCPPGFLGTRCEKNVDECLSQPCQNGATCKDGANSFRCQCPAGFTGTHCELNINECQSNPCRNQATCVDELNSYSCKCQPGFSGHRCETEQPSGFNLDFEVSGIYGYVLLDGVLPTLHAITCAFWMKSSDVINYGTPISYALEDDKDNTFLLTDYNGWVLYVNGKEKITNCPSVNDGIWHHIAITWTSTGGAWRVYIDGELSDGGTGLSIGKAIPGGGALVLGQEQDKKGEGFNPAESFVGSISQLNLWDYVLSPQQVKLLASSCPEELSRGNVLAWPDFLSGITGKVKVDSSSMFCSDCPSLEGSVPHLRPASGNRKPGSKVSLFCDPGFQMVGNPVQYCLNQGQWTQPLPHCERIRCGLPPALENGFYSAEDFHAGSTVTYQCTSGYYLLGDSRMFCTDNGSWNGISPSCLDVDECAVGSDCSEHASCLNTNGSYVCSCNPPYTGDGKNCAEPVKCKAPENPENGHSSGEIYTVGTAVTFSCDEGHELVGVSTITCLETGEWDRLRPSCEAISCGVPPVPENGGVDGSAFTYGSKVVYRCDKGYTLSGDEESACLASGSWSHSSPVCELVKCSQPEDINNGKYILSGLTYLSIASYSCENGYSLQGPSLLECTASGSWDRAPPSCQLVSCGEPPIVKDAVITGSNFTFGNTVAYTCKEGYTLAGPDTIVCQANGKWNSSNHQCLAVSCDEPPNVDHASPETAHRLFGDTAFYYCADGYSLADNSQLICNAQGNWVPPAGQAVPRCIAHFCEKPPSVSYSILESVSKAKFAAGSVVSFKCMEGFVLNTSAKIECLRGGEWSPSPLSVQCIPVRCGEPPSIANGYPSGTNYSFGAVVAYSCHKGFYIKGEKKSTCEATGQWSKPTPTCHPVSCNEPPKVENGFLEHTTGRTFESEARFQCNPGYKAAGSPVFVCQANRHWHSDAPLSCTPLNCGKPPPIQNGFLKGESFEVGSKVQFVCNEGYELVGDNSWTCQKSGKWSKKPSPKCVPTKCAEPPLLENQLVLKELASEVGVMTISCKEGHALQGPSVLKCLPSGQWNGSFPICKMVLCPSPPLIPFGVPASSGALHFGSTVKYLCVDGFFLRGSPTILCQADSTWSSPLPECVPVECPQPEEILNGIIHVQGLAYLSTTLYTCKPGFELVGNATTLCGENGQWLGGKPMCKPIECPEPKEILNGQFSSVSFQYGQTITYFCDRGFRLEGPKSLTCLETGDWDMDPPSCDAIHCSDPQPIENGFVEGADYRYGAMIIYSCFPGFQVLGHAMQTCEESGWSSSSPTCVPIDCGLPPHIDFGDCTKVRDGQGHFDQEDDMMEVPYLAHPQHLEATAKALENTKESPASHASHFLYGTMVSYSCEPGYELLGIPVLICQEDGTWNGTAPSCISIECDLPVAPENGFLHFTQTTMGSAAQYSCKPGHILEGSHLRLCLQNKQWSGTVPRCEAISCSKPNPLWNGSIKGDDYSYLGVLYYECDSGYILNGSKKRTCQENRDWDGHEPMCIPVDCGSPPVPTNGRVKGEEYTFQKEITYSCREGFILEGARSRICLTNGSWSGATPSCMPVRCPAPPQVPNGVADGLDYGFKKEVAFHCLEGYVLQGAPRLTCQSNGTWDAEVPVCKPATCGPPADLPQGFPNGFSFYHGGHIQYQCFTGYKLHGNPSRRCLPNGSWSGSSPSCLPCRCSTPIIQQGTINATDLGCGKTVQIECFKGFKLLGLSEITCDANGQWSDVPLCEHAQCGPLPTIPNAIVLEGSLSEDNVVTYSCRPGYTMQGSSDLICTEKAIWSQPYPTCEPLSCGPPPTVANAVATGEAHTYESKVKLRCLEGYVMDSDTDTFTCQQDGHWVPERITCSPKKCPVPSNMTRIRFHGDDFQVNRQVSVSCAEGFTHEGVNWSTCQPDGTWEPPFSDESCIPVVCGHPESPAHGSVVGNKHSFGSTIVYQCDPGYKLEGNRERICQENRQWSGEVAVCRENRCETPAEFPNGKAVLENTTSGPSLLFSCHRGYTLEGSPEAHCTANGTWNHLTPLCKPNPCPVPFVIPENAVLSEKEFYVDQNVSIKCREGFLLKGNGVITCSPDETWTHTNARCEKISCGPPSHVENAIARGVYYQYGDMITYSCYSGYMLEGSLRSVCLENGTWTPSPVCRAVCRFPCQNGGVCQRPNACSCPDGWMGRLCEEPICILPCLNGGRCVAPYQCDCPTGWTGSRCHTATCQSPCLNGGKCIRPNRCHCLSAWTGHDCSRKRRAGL

Tests used:
[1] = target: Fibronectin from enriched murine VSMC media (mouse) (UniProt P11276); experiment: affinity (SVEP1-Myc pulldown) and proximity (SVEP1-mTID biotin labelling) proteomics in enriched murine VSMC media, enrichment at P<0.10 in every experiment
[2] = target: Fibronectin from enriched murine VSMC media (mouse) (UniProt P11276); experiment: co-immunoprecipitation of SVEP1-Myc with anti-Myc beads from enriched murine VSMC media, immunoblot for Fibronectin (FIG. 50C)
[3] = target: T1, Pearl 1ECD-Bio-His (biotinylated Pearl 1 ecto-domain, plasmid pTT3-Pearl 1-bio-His) (UniProt Q5VY43); experiment: co-immunoprecipitation of purified proteins, biotinylated Pearl 1 detected with fluorescent streptavidin (FIG. 50A)
T1 sequence (biotinylated by co-transfected secreted BirA (site not printed), looked up): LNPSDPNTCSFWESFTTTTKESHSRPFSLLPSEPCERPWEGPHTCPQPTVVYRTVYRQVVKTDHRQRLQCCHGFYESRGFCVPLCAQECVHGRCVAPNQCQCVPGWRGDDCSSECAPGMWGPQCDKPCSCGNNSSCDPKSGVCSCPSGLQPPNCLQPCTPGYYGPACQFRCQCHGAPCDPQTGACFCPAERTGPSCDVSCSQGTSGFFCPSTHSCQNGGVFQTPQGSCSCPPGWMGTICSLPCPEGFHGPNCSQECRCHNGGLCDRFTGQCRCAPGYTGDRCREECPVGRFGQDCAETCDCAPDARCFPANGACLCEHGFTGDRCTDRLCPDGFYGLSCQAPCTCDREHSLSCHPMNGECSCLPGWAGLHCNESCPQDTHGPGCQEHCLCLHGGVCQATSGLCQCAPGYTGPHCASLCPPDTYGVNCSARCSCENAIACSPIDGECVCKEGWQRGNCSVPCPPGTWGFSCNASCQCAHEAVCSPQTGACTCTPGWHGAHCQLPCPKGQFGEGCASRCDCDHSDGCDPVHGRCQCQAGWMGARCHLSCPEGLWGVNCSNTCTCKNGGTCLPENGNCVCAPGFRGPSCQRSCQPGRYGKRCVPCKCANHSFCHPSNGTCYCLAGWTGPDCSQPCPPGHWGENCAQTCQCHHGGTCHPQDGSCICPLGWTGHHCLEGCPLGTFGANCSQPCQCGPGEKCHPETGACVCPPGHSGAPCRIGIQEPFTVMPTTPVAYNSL

Measured: binding

recombinant, Myc-tagged SVEP1 (murine Svep1-myc-His10 construct) (from UniProt A2AVA0 18-3567) (ligand)
binds: all assays above
